# No constants are given. Whether binding was seen depends on the method and setting. Binding seen in cells or lysates may run through a third protein. Some results given as binding are weak or reduced against the parent protein; the word gives no strength.
# The chains behind the UniProt entries cited, without tags or fusion partners.
# UniProt Q9UN81: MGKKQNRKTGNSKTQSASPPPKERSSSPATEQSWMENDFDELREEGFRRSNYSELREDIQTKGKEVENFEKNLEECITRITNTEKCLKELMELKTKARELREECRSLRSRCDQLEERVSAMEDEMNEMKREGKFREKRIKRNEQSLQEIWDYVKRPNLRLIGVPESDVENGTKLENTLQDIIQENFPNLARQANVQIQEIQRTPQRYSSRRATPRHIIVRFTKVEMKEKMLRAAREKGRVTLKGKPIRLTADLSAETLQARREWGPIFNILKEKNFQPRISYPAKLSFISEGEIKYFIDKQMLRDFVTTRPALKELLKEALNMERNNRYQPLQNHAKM
# UniProt O00629: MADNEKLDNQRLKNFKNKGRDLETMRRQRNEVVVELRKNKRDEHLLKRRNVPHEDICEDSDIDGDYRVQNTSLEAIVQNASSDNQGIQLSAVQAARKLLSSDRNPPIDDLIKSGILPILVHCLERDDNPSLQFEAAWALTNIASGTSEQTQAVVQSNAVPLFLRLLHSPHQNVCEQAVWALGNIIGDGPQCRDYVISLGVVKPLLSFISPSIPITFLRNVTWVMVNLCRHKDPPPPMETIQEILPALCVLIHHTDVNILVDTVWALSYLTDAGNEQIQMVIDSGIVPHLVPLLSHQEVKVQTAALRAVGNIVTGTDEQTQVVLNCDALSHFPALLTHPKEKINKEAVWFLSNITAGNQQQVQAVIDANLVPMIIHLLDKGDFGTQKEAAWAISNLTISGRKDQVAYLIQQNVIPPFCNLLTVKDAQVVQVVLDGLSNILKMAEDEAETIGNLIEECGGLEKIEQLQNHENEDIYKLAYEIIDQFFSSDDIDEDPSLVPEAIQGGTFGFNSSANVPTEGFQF
# UniProt O15131: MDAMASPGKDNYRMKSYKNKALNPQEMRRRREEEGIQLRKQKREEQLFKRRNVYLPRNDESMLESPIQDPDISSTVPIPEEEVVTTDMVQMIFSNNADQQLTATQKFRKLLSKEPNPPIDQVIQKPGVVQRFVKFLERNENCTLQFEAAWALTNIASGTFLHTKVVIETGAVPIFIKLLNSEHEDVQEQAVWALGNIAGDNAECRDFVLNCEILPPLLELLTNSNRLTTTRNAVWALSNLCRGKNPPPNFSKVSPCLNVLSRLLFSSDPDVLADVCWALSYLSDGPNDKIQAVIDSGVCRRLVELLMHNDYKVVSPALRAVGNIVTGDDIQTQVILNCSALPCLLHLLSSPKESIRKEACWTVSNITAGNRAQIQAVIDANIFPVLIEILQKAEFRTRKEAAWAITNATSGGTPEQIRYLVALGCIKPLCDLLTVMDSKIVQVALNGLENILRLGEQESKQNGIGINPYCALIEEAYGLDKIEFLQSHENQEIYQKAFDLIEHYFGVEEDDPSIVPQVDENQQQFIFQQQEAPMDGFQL
# UniProt O00505: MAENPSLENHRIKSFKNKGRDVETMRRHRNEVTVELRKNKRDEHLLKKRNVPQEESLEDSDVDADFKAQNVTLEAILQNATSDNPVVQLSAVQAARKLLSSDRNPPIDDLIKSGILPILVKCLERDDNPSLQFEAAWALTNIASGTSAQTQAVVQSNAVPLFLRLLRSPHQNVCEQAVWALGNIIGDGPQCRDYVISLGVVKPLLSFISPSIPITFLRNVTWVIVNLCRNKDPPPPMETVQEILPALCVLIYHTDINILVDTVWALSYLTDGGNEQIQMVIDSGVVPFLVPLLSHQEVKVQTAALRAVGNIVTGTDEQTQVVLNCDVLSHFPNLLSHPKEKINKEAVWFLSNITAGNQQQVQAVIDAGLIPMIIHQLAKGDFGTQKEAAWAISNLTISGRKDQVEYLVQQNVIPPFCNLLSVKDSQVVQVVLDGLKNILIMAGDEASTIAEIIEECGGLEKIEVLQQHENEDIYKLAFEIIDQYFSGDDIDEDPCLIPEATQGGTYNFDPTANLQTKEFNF
# UniProt P52294: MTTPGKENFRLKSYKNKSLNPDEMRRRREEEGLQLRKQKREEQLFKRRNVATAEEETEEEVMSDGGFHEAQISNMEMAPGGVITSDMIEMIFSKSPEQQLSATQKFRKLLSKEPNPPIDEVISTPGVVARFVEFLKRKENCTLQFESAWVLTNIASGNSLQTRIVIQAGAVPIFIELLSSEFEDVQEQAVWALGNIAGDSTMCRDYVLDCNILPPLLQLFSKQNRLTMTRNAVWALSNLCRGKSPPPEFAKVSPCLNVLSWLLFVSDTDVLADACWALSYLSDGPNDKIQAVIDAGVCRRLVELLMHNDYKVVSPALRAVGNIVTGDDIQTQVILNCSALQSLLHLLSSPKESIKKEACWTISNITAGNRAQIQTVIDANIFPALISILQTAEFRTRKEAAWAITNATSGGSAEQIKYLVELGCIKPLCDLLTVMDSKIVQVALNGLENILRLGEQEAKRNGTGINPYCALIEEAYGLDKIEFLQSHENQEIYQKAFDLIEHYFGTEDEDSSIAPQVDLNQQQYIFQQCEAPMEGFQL
# UniProt Q14974: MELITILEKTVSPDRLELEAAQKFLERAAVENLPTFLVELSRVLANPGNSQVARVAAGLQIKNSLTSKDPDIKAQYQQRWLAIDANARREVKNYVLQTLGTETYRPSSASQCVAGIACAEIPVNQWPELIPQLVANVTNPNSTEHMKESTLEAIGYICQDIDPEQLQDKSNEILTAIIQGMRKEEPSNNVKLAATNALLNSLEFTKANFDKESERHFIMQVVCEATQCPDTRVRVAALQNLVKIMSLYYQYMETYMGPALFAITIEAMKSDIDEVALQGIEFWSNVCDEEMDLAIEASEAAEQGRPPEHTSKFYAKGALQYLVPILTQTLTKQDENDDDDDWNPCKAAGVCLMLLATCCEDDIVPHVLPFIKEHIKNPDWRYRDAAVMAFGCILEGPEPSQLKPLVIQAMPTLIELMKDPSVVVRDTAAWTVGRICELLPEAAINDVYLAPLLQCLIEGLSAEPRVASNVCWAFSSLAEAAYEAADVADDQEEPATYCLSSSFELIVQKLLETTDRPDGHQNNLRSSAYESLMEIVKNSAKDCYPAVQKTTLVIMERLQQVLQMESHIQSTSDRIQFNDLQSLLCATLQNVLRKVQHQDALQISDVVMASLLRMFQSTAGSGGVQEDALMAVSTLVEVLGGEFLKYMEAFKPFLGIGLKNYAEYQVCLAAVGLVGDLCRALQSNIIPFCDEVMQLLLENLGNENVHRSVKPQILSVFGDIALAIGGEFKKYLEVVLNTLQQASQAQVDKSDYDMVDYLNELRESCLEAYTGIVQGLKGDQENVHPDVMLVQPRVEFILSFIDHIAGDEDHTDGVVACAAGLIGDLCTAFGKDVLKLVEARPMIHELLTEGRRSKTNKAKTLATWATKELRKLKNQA
# What was measured:
# [1] = molecular target: flag-tagged human L1 ORF1 protein (human) (UniProt Q9UN81); assay: co-IP; HeLa cells transfected with FLAG-ORF1p, with or without a KPNA2 or KPNB1 plasmid; lysate on Anti-FLAG beads; KPNA2 and KPNB1 detected by western blot
# [2] = molecular target: FLAG-tagged KPNA6 (UniProt O60684); assay: co-IP; HeLa cells co-transfected with a FLAG-tagged KPNA and untagged ORF1p; lysate in TLB (50 mM Tris, 150 mM NaCl, 10 mM EDTA, 0.5% Triton X-100, pH 7.2) diluted in TBS; Anti-Flag M2 affinity gel overnight at 4 degrees Celsius; ORF1p detected by western blot with hORF1 antibodies
# [3] = molecular target: FLAG-tagged KPNA4 (UniProt O00629); assay: as above
# [4] = molecular target: FLAG-tagged KPNA5 (UniProt O15131); assay: as above
# [5] = molecular target: FLAG-tagged KPNA3 (UniProt O00505); assay: as above
# [6] = molecular target: FLAG-tagged KPNA1 (UniProt P52294); assay: as above
binding [1],binding [2],binding [3],binding [4],binding [5],binding [6],Substance
binds,–,–,–,–,–,endogenous KPNB1 (from UniProt Q14974 1-876)
binds,–,–,–,–,–,overexpressed wild type KPNB1 (from UniProt Q14974 1-876)
–,binds,binds,binds,binds,binds,untagged wild type human L1 ORF1 protein (from UniProt Q9UN81 1-338)

# Reference: publication PMC6501352
